Data on 2 substances can be found in publication PMC3244426.

Chains of the proteins cited; added tags and fusions are not shown. Residues count along the entry.
UniProt Q08857: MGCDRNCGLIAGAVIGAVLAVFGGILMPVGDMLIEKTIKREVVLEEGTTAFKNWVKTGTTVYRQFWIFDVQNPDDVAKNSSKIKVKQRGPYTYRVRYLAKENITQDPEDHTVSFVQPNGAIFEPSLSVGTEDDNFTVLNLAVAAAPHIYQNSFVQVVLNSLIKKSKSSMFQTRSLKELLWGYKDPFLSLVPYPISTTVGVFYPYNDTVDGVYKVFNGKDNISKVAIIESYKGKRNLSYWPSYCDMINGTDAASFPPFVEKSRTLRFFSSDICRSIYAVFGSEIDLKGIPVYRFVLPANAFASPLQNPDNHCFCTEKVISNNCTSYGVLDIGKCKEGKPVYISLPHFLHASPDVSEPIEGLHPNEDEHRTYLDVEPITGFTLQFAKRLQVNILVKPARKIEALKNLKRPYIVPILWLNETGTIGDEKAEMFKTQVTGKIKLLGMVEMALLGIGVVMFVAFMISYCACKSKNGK
UniProt P27512, residues 20-289: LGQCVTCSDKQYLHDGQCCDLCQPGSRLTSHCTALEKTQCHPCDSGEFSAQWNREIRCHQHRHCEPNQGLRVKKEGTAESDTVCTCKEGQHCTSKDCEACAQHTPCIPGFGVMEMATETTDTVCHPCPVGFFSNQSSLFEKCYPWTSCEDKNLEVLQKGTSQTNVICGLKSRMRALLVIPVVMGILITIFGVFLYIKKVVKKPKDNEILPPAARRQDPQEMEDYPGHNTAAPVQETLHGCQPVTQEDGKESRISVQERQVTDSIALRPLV

Test [1] concerns the target T1, CD9 tetraspanin (mouse (endogenous in peritoneal macrophages)) (UniProt P40240).
T1 sequence: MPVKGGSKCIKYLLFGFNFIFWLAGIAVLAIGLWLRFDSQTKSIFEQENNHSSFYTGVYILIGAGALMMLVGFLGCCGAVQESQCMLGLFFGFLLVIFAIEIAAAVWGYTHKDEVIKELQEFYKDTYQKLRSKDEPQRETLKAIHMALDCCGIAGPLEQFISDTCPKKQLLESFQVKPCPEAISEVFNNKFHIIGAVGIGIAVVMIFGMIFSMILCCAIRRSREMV
The test is described as follows: co-IP; mouse peritoneal macrophages treated with dithiobis-succinimidylpropionate, lysed in 1% CHAPS, 50 mM Tris-HCl pH 7.5, 150 mM NaCl; 750 µg protein with anti-CD36 IgA or anti-CD9 IgG beads overnight at 4°C; immunoblot; cd36 null cells and isotype control antibodies as controls. (In western blotting, separated proteins are transferred to a membrane and probed.)

The target of test [2] is CD36 (mouse (endogenous in peritoneal macrophages)) (UniProt Q08857). The test is described as follows: proximity ligation; fixed mouse peritoneal macrophages; anti-CD36 with anti-CD9, anti-CD31 or anti-CD40 primary antibodies, species specific DNA-conjugated secondary antibodies (Duolink, Olink); spots when <40 nm apart; cd36 null cells as control.

These are yes or no findings as the source states them, for the method shown. In cells and extracts the contact can be indirect. Some results given as binding are weak or reduced against the parent protein; the word gives no strength.

As to “CD36 (from UniProt Q08857 1-472) (receptor)”, the binding entry in test [1] is “binds”.
For the substance “CD40 (from UniProt P27512 20-289) (receptor)”, the binding result in test [2] was “no binding”.
